{"source": "PubChem BioAssay AID1224830 (NIAID, 2016)", "test": "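Host factors that control LPS-induced TNF expression in human macrophages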 (primary screen)", "cells": "human THP-1 monocytic leukaemia cells, TNF dual-luciferase reporter clone, PMA-differentiated to macrophage-like cells", "reagents": "siRNA pool against human genes, 50 nM", "duration": "LPS for 4 h, given about 3 days after siRNA transfection", "treatment": "bacterial LPS (TLR4 ligand), 10 ng/ml", "measurement": "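Ratio of firefly to renilla light, scaled to the plate median and expressed as a robust z-score per replicate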", "direction": "TNF reporter robust z-score: higher = stronger TNF reporter response to LPS", "active means": "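a well is active when its z-score exceeds 2.8 or falls below -1.5; control wells carry no call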", "note": "This is a random part of about 18,000 reagents tested. In the full data, about 2,900 (16%) were called active. 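Calls are made per well; low scores hint the gene aids the LPS response, high scores that it dampens it.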 Repeated entries: four replicate wells of each siRNA pool."}
{"gene":"OR5H2","TNF reporter robust z-score":0.26,"activity call":"inactive"}
{"gene":"OR5H2","TNF reporter robust z-score":0.66,"activity call":"inactive"}
{"gene":"OR5H2","TNF reporter robust z-score":0.29,"activity call":"inactive"}
{"gene":"OR5H2","TNF reporter robust z-score":-0.17,"activity call":"inactive"}
{"gene":"LRRC4B","TNF reporter robust z-score":-0.13,"activity call":"inactive"}
{"gene":"LRRC4B","TNF reporter robust z-score":0.04,"activity call":"inactive"}
{"gene":"LRRC4B","TNF reporter robust z-score":-0.6,"activity call":"inactive"}
{"gene":"LRRC4B","TNF reporter robust z-score":-1.19,"activity call":"inactive"}
{"gene":"KRTAP10-10","TNF reporter robust z-score":-0.01,"activity call":"inactive"}
{"gene":"KRTAP10-10","TNF reporter robust z-score":0.17,"activity call":"inactive"}
{"gene":"KRTAP10-10","TNF reporter robust z-score":-0.46,"activity call":"inactive"}
{"gene":"KRTAP10-10","TNF reporter robust z-score":0.67,"activity call":"inactive"}
{"gene":"ZNF624","TNF reporter robust z-score":-0.46,"activity call":"inactive"}
{"gene":"ZNF624","TNF reporter robust z-score":0.56,"activity call":"inactive"}
{"gene":"ZNF624","TNF reporter robust z-score":-0.13,"activity call":"inactive"}
{"gene":"ZNF624","TNF reporter robust z-score":1,"activity call":"inactive"}
{"gene":"KCNJ9","TNF reporter robust z-score":-0.94,"activity call":"inactive"}
{"gene":"KCNJ9","TNF reporter robust z-score":-0.04,"activity call":"inactive"}
{"gene":"KCNJ9","TNF reporter robust z-score":-0.24,"activity call":"inactive"}
{"gene":"KCNJ9","TNF reporter robust z-score":0.36,"activity call":"inactive"}

5 of these entries in another layout.
{"gene": "OR5H2", "TNF reporter robust z-score": 0.29, "activity call": "inactive"}
{"gene": "OR5H2", "TNF reporter robust z-score": -0.17, "activity call": "inactive"}
{"gene": "LRRC4B", "TNF reporter robust z-score": -0.13, "activity call": "inactive"}
{"gene": "LRRC4B", "TNF reporter robust z-score": 0.04, "activity call": "inactive"}
{"gene": "LRRC4B", "TNF reporter robust z-score": -0.6, "activity call": "inactive"}

Further entries:
{"gene":"RAPGEF3","TNF reporter robust z-score":-1.77,"activity call":"active"}
{"gene":"RAPGEF3","TNF reporter robust z-score":-1.68,"activity call":"active"}
{"gene":"RAPGEF3","TNF reporter robust z-score":-1.33,"activity call":"inactive"}
{"gene":"RAPGEF3","TNF reporter robust z-score":-1.37,"activity call":"inactive"}
{"gene":"PLAC1","TNF reporter robust z-score":0.52,"activity call":"inactive"}
{"gene":"PLAC1","TNF reporter robust z-score":-0.33,"activity call":"inactive"}
{"gene":"PLAC1","TNF reporter robust z-score":0.33,"activity call":"inactive"}
{"gene":"PLAC1","TNF reporter robust z-score":-0.32,"activity call":"inactive"}
{"gene":"KCNJ6","TNF reporter robust z-score":-0.34,"activity call":"inactive"}
{"gene":"KCNJ6","TNF reporter robust z-score":-0.11,"activity call":"inactive"}
{"gene":"KCNJ6","TNF reporter robust z-score":-0.16,"activity call":"inactive"}
{"gene":"KCNJ6","TNF reporter robust z-score":-0.62,"activity call":"inactive"}
